Laboratory results as given in the supplement of paper PMC6411743.
± gives the standard deviation of the averaged measurements. The list shows a part of the results, in another mix than the full data.

Amino acid sequences for entries named in this document (tags omitted). A change or cut given only in a name is not applied to a line headed by its entry.
UniProt Q15544, whole entry: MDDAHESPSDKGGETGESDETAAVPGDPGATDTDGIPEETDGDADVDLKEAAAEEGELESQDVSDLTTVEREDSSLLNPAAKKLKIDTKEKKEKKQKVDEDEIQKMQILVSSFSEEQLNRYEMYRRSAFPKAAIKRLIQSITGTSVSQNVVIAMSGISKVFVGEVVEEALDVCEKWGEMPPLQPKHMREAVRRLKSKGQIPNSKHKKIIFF
UniProt Q15738: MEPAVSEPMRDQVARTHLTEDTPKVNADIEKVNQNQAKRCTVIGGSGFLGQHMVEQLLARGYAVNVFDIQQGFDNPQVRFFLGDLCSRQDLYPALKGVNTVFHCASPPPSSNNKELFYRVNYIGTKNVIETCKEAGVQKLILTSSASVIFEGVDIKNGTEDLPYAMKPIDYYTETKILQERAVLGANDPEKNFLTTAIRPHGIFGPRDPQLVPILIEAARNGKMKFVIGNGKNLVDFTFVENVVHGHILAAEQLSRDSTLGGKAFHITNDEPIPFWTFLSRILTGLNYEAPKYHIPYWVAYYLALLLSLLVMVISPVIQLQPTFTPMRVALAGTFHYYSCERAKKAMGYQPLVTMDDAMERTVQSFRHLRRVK
UniProt Q14692: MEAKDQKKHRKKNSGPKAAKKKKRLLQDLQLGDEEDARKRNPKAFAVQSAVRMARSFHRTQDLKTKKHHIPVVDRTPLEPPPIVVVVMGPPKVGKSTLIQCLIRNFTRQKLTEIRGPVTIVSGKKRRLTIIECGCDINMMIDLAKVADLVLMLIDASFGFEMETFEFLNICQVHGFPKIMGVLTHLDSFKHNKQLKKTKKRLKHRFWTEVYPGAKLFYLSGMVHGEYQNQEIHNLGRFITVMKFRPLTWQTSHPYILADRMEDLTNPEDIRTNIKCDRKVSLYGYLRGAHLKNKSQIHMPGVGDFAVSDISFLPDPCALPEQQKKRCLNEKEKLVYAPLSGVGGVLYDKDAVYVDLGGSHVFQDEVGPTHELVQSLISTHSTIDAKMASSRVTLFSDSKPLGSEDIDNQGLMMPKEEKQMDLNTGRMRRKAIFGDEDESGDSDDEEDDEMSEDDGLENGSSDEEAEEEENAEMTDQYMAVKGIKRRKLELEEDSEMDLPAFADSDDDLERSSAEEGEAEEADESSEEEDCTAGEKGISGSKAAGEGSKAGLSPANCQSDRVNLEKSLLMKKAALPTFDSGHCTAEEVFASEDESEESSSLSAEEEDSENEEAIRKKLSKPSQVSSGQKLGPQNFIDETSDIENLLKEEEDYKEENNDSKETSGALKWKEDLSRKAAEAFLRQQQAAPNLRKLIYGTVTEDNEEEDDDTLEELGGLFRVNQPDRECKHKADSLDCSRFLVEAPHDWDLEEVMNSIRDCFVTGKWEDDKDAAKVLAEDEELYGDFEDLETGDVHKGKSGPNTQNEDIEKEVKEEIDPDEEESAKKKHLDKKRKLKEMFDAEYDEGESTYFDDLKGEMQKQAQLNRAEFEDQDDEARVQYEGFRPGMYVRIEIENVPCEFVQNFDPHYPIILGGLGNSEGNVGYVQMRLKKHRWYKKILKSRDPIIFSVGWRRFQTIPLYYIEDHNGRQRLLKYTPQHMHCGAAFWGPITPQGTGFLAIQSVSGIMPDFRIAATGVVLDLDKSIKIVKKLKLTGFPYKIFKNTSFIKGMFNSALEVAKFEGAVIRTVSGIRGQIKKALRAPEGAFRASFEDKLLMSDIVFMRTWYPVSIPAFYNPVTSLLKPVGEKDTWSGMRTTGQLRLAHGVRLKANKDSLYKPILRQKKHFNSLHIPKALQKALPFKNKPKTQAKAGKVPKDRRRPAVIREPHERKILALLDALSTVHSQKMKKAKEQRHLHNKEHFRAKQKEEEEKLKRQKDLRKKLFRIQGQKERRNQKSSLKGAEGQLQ
UniProt Q15021, whole entry: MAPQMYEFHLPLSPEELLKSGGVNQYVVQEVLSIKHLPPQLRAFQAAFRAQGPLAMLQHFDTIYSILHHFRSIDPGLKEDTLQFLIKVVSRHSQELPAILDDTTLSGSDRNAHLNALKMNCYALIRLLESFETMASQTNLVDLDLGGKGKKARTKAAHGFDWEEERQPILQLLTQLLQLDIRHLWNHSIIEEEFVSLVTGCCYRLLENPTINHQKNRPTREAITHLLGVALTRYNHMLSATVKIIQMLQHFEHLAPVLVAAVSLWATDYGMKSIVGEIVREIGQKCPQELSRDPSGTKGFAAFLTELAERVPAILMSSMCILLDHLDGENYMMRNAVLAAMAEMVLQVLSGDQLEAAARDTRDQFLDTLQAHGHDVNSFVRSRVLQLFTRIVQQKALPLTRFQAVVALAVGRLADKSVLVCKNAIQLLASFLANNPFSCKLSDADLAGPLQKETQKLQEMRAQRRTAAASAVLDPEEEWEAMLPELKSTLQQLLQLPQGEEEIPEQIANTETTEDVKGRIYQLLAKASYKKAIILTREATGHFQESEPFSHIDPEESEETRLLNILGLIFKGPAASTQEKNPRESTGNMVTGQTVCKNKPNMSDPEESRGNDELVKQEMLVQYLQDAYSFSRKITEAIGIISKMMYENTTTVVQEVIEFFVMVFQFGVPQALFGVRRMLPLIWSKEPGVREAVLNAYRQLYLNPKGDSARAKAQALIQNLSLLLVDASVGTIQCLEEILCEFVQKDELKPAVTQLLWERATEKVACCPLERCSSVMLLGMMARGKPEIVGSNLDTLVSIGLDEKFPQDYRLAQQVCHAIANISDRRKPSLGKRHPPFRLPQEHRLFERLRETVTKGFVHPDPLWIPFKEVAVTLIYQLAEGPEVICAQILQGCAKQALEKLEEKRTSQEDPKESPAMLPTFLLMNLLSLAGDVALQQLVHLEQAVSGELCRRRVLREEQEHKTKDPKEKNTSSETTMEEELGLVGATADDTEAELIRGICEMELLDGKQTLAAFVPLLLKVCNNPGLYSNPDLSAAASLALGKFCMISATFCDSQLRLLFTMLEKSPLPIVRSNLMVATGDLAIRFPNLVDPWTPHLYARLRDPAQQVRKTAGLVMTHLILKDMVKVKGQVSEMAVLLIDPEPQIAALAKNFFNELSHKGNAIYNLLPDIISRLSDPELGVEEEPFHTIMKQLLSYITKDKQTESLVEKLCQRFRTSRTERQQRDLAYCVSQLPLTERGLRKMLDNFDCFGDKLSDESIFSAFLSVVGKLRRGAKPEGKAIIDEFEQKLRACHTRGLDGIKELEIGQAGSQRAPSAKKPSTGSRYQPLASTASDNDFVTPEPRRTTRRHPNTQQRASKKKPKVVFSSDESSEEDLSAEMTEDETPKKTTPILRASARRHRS
UniProt Q14320: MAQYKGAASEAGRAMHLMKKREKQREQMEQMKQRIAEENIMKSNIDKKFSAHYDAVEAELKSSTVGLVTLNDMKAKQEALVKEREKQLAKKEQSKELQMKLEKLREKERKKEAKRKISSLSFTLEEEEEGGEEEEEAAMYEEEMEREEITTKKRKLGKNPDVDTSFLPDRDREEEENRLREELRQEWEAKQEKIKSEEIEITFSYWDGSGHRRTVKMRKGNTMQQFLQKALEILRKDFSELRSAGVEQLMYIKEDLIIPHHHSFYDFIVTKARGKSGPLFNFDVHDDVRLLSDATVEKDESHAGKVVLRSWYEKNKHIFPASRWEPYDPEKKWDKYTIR
UniProt Q14151: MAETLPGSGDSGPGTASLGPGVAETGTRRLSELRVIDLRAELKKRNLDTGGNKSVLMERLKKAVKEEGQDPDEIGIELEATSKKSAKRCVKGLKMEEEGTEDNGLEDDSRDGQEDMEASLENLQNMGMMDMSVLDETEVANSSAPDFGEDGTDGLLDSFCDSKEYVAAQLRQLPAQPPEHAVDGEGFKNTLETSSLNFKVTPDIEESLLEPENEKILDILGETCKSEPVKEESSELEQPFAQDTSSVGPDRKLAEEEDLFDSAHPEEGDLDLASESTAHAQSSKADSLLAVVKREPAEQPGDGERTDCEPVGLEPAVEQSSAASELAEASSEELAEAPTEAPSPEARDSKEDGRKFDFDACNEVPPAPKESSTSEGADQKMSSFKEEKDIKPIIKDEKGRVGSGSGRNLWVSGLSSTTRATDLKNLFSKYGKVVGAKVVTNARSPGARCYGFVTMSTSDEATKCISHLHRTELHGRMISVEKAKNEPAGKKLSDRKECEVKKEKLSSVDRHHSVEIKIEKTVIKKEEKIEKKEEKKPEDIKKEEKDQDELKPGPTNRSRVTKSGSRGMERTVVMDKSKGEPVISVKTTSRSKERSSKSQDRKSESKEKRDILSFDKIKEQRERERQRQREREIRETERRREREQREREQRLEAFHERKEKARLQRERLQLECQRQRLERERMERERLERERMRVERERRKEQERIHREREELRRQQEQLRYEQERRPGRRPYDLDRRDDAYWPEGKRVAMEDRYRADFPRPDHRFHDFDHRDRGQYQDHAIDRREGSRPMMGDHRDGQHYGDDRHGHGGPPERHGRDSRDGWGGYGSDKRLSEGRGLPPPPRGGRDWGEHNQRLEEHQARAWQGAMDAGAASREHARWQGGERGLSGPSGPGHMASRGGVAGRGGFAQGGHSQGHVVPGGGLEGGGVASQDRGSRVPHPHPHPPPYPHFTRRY
UniProt Q3KRA6: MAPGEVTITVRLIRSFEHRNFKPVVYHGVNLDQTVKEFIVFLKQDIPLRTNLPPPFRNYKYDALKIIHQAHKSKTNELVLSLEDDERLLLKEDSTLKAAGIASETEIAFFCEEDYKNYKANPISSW
UniProt Q14683: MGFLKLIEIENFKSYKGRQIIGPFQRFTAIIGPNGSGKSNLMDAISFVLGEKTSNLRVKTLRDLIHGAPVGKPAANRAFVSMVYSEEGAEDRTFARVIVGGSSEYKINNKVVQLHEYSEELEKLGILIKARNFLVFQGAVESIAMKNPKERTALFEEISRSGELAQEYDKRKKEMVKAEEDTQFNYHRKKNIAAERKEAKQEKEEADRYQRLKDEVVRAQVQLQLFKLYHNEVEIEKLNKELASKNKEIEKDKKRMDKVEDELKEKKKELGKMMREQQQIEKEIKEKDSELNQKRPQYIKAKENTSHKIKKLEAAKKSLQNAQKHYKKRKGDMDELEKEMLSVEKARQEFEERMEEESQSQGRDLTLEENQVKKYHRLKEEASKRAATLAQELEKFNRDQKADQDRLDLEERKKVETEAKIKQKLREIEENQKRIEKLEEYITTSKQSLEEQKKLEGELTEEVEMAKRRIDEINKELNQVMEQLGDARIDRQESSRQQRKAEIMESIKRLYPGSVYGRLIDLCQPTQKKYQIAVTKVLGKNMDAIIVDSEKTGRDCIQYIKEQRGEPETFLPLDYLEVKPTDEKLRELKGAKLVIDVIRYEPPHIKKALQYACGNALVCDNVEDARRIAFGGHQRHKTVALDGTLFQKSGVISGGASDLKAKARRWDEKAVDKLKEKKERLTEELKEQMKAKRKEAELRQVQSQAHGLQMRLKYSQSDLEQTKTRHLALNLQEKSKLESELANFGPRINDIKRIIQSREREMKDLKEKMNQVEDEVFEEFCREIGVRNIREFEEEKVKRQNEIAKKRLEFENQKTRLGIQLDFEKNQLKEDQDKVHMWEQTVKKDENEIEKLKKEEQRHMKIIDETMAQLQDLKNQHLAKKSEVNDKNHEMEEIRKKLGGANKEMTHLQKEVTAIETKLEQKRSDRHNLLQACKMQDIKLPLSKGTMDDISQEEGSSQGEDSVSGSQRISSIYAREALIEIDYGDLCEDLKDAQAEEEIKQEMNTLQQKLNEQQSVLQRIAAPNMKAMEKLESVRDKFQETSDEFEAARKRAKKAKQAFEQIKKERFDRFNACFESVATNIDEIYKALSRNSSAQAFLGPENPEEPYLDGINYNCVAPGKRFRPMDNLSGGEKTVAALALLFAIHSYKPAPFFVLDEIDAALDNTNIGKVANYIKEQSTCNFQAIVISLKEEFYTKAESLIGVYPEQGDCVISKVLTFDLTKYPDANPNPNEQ
UniProt Q16134: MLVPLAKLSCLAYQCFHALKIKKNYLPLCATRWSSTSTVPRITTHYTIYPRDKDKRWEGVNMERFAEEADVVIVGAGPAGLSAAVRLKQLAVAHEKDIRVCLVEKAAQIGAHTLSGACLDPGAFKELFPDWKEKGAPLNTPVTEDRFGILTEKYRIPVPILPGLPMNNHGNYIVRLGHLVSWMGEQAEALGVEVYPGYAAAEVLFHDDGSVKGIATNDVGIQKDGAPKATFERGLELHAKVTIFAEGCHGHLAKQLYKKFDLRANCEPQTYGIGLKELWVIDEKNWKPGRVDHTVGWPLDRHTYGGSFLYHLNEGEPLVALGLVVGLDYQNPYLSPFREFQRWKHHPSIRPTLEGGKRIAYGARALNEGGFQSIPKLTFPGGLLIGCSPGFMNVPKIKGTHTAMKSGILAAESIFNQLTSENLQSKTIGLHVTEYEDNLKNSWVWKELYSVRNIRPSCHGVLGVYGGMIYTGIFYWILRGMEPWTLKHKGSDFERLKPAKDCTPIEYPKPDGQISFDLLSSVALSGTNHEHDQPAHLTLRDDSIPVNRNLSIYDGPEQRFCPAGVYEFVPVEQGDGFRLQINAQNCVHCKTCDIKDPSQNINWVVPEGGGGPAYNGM

Compound: Nc1ncnc2c1ncn2[C@@H]1O[C@H](COP(=O)(O)OP(=O)(O)OP(=O)(O)O)[C@@H](O)[C@H]1O [adenosine triphosphate]
Assay: NP40-soluble protein abundance relative to vehicle (solubility fold change) (ratio); higher = more soluble protein in presence of ATP
Procedure, shortened: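 Data come from three independent experiments in which Dounce-homogenised Jurkat crude lysate was treated at eight concentrations from 0.1 to 10 mM. Treatment ran 10 min at room temperature and then 3 min at 37 °C, after which 0.8% NP40 and benzonase were added for 60 min at 4 °C before ultracentrifugation. The supernatant underwent TMT labelling and LC-MS/MS, and vsn-normalised intensities were expressed as fold change against the detergent-processed vehicle in each replicate.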

Row | Target | NP40-soluble protein abundance (concentration: 1mM) | NP40-soluble protein abundance (concentration: 2mM) | NP40-soluble protein abundance (concentration: 4mM) | NP40-soluble protein abundance (concentration: 6mM) | NP40-soluble protein abundance (concentration: 8mM) | NP40-soluble protein abundance (concentration: 10mM)
1 | UniProt Q15544 and related entries | 1.09 ± 0.025 | 1.17 ± 0.058 | 1.15 ± 0.042 | 1.13 ± 0.2 | 1.18 ± 0.15 | 1.14 ± 0.028
2 | NSDHL (UniProt Q15738) | 0.957 ± 0.042 | 0.948 ± 0.048 | 0.931 ± 0.022 | 0.916 ± 0.1 | 0.937 ± 0.037 | 0.931 ± 0.054
3 | ESPL1 (UniProt Q14674) | 1.03 ± 0.092 | 0.884 ± 0.085 | 0.906 ± 0.15 | 0.973 ± 0.11 | 0.819 ± 0.14 | 0.924 ± 0.14
4 | PPP2R5A (UniProt Q15172) | 1.01 ± 0.036 | 1.03 ± 0.053 | 1.01 ± 0.06 | 1.01 ± 0.047 | 1 ± 0.059 | 1 ± 0.067
5 | HAGH (UniProt Q16775) | 0.966 ± 0.062 | 0.968 ± 0.024 | 0.944 ± 0.054 | 0.923 ± 0.11 | 0.951 ± 0.023 | 0.9664 ± 0.009
6 | SURF2 (UniProt Q15527) | 0.93 ± 0.1 | 0.972 ± 0.089 | 0.974 ± 0.14 | 1.05 ± 0.087 | 1.03 ± 0.17 | 0.999 ± 0.19
7 | UniProt Q15599 and related entries | 0.949 ± 0.031 | 0.9386 ± 0.0084 | 0.938 ± 0.033 | 0.929 ± 0.01 | 0.865 ± 0.023 | 0.858 ± 0.056
8 | HERC1 (UniProt Q15751) | 1.03 ± 0.026 | 1 ± 0.031 | 0.984 ± 0.023 | 0.949 ± 0.043 | 1 ± 0.048 | 0.978 ± 0.063
9 | BMS1 (UniProt Q14692) | 1.02 ± 0.097 | 1.02 ± 0.074 | 1.04 ± 0.052 | 1.06 ± 0.077 | 1.02 ± 0.02 | 1.01 ± 0.073
10 | NCAPD2 (UniProt Q15021) | 0.9884 ± 0.0079 | 0.98 ± 0.031 | 0.979 ± 0.018 | 0.941 ± 0.025 | 0.978 ± 0.031 | 0.962 ± 0.04
11 | FAM50A (UniProt Q14320) | 0.931 ± 0.1 | 0.922 ± 0.071 | 0.922 ± 0.043 | 0.909 ± 0.081 | 0.941 ± 0.06 | 0.931 ± 0.043
12 | UniProt Q14865 | 1.01 ± 0.069 | 1 ± 0.12 | 1.04 ± 0.15 | 1.04 ± 0.15 | 0.994 ± 0.12 | 1.03 ± 0.12
13 | EXOSC7 (UniProt Q15024) | 1.06 ± 0.11 | 1.07 ± 0.07 | 1.12 ± 0.065 | 1.08 ± 0.086 | 1.2 ± 0.059 | 1.21 ± 0.073
14 | DYNC1H1 (UniProt Q14204) | 1.08 ± 0.12 | 0.997 ± 0.069 | 0.99 ± 0.054 | 0.933 ± 0.044 | 1.06 ± 0.011 | 0.992 ± 0.047
15 | UniProt Q15796 and related entries | 0.953 ± 0.024 | 0.975 ± 0.04 | 0.971 ± 0.025 | 0.973 ± 0.036 | 0.961 ± 0.03 | 0.944 ± 0.048
16 | MED1 (UniProt Q15648) | 0.985 ± 0.064 | 0.983 ± 0.061 | 0.987 ± 0.072 | 1 ± 0.047 | 0.965 ± 0.054 | 1.02 ± 0.06
17 | FAM98C (UniProt Q17RN3) | 0.962 ± 0.051 | 0.989 ± 0.038 | 1.02 ± 0.018 | 0.938 ± 0.038 | 0.961 ± 0.021 | 0.985 ± 0.036
18 | SAFB2 (UniProt Q14151) | 0.972 ± 0.073 | 1 ± 0.071 | 1.06 ± 0.066 | 1.14 ± 0.1 | 1.13 ± 0.046 | 1.23 ± 0.048
19 | CBX2 (UniProt Q14781) | 1.13 ± 0.028 | 1.14 ± 0.057 | 1.16 ± 0.016 | 1.39 ± 0.038 | 1.27 ± 0.12 | 1.49 ± 0.064
20 | ARHGEF6 (UniProt Q15052) | 0.965 ± 0.038 | 0.981 ± 0.019 | 0.968 ± 0.011 | 0.975 ± 0.048 | 0.995 ± 0.021 | 0.977 ± 0.026
21 | C2orf76 (UniProt Q3KRA6) | 0.922 ± 0.069 | 0.93 ± 0.028 | 0.947 ± 0.035 | 0.906 ± 0.054 | 0.945 ± 0.085 | 0.929 ± 0.059
22 | SMC1A (UniProt Q14683) | 0.995 ± 0.022 | 0.978 ± 0.019 | 0.952 ± 0.022 | 0.998 ± 0.036 | 0.968 ± 0.011 | 0.962 ± 0.016
23 | ETFDH (UniProt Q16134) | 1 ± 0.064 | 0.984 ± 0.048 | 0.98 ± 0.019 | 0.957 ± 0.076 | 0.984 ± 0.046 | 0.98 ± 0.052
24 | MORF4L2 (UniProt Q15014) | 1 ± 0.1 | 1.02 ± 0.082 | 1.06 ± 0.095 | 1.05 ± 0.071 | 1.05 ± 0.034 | 1.03 ± 0.078
25 | MAPKAPK3 (UniProt Q16644) | 0.948 ± 0.034 | 0.926 ± 0.031 | 0.894 ± 0.04 | 0.919 ± 0.035 | 0.898 ± 0.035 | 0.87 ± 0.045
26 | RSU1 (UniProt Q15404) | 1.02 ± 0.04 | 1 ± 0.035 | 0.989 ± 0.029 | 0.969 ± 0.049 | 0.969 ± 0.059 | 0.952 ± 0.037
27 | EEA1 (UniProt Q15075) | 0.947 ± 0.052 | 0.952 ± 0.018 | 0.942 ± 0.018 | 0.993 ± 0.02 | 0.921 ± 0.025 | 0.918 ± 0.013
28 | TSR1 (UniProt Q2NL82) | 0.869 ± 0.031 | 0.866 ± 0.078 | 0.917 ± 0.071 | 0.979 ± 0.095 | 1.06 ± 0.11 | 1.13 ± 0.12
29 | UniProt Q14671 and related entries | 0.91 ± 0.054 | 0.93 ± 0.038 | 0.902 ± 0.074 | 0.923 ± 0.043 | 0.896 ± 0.057 | 0.907 ± 0.062
30 | UniProt Q15257 and related entries | 0.948 ± 0.056 | 0.937 ± 0.054 | 0.912 ± 0.047 | 0.893 ± 0.08 | 0.873 ± 0.028 | 0.878 ± 0.049

Part of the list above in another layout.
Row	Target	NP40-soluble protein abundance (concentration: 1mM)	NP40-soluble protein abundance (concentration: 2mM)	NP40-soluble protein abundance (concentration: 4mM)	NP40-soluble protein abundance (concentration: 6mM)	NP40-soluble protein abundance (concentration: 8mM)	NP40-soluble protein abundance (concentration: 10mM)
2	NSDHL (UniProt Q15738)	0.957 ± 0.042	0.948 ± 0.048	0.931 ± 0.022	0.916 ± 0.1	0.937 ± 0.037	0.931 ± 0.054
3	ESPL1 (UniProt Q14674)	1.03 ± 0.092	0.884 ± 0.085	0.906 ± 0.15	0.973 ± 0.11	0.819 ± 0.14	0.924 ± 0.14
